Measurements published in patent US20230391808A1, “PHOSPHAPHENALENE-GOLD(I) COMPLEXES AS CHEMOTHERAPEUTIC AGENTS AGAINST GLIOBLASTOMA” (priority 2020, published 2023).

Test system: NCH82 cell line
Test: Drug uptake kinetics by fluorescence microscopy
Format: cell-based, human
Procedure: Based on the observed high bio-activity and the spectroscopic properties of Compound 6 as an example of the present invention, the drug uptake kinetics was investigated in NCH82 cell line. To this end, cells were treated with increasing concentrations of Compound 6 and its drug uptake was monitored with a fluorescence microscope (excitation/emission 350/455 nm; data not shown).
To measure the uptake kinetics of compound 6 by NCH82 cells, they were seeded in a 96-well plate (5,000 cells/well) and after 24 h, cell culture medium was replaced with compound 6 or DMSO-containing medium (0.1, 1 and 10 μM). Images were taken with a fluorescence microscope (Olympus, Shinjuku, Japan) at 1 h, 24 h and 48 h after treatment initiation. A laser with an excitation/emission spectrum of 350/455 nm was used and images were taken with a 10× objective.

## CC(=O)OC[C@H]1O[C@@H]([S][Au-][P+]2(c3ccccc3)c3ccn(C)c3-c3cccc4cccc2c34)[C@H](OC(C)=O)[C@@H](OC(C)=O)[C@@H]1OC(C)=O (stereo partly drawn) [Compound 6]
0.1 μM
  time after which compound started to be internalized: 24 h
1 μM
  time after which cells started to absorb the compound: 1 h
10 μM
  time of treatment after which cells internalize the compound and start shrinking and detaching: 1 h
